# Some entries share one result that the patent states for a list of compounds.
# Tested on: 4T1 cells
# Experiment: Cell line toxicity (MTT)
# Type: cell-based
# Conditions: 18 hours
# Method: Cell line Toxicity: 4T1 cells (ATCC Manassas, Va.) were plated at a density of 1×10^4 cells/well in 96-well plates in Roswell Park Memorial Institute Media 1640 (RPMI)
# (Gibco, Gaithersburg, MD) supplemented with 10% Fetal Bovine Serum (Gibco), 2 mM GlutaMAX (Gibco) and 50 μM 2-mercaptoethanol (Sigma Aldrich, St. Louis, Mo.) and incubated at 37 C under a 5% CO2 atmosphere in the dark for 18 h. Cell cultures were treated with serial dilutions of compounds in the presence or absence of 1 μg/mL colistin (3 replicates per condition) and incubated for an additional 18 hours. The following control conditions were used: media only (blank), 1% Triton X100 (0% cell viability), 0.5% DMSO (100% cell viability). Each condition was then treated with 10% volume of a 5 mg/mL solution of 3-(4,5-dimethylthiazol-2-yl)-2,5-diphenyltetrazolium bromide (MTT) (Sigma Aldrich) in sterile filtered 1X phosphate buffered saline (PBS) and incubated for 2 h. at 37 C in 5% CO2, after which the media was aspirated and the resulting formazan crystals were resuspended in 100 μL acidified (4 mM HCl) isopropanol. The 96-well plate was then read at 540 nm on a FLUOstar Optima (BMG Labtech Cary, NC) microplate reader. Cell viability was calculated as a percentage using the two previously mentioned controls.
smiles,measurement,value
O=C(Nc1ccc(Br)cc1)c1cc(Cl)ccc1O [Compound 37],no measurable toxicity up to,> 200 µM

# — patent US20220356147A1, “COMPOUNDS AND METHODS FOR POTENTIATING COLISTIN ACTIVITY” (University of Notre Dame du Lac, priority 2019, published 2022)
